Laboratory results published in publication doi:10.1101/2020.12.28.424500.
No constants are given. Whether binding was seen depends on the method and setting. Binding seen in cells or lysates may run through a third protein. Some results given as binding are weak or reduced against the parent protein; the word gives no strength. For some assays here: Tags and fused reporters may be left off the sequences shown.

T1: C-terminal fragment of YFP fused with VAMP721 (Arabidopsis thaliana) (UniProt Q9ZTW3)
T1 sequence: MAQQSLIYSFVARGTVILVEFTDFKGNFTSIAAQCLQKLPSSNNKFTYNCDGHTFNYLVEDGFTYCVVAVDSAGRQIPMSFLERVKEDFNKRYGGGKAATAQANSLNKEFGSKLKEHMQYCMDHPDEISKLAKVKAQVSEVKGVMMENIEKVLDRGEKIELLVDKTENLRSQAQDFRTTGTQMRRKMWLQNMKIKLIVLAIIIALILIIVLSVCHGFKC

T2: TagRFP-VAMP727 (Arabidopsis thaliana) (UniProt Q9M376)
T2 sequence: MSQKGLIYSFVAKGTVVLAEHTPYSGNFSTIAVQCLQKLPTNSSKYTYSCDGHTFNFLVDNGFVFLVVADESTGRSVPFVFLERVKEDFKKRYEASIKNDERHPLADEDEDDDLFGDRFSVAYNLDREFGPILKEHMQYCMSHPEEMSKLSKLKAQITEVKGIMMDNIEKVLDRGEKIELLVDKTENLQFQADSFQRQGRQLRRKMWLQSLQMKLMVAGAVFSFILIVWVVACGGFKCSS

B1: N-terminal fragment of YFP fused with SYP132 (protein, UniProt Q8VZU2 1-304)
chain: MNDLLKGSFELPRGQSSREGDVELGEQQGGDQGLEDFFKKVQVIDKQYDKLDKLLKKLQASHEESKSVTKAPAMKAIKKTMEKDVDEVGSIARFIKGKLEELDRENLANRQKPGCAKGSGVDRSRTATTLSLKKKLKDKMAEFQVLRENIQQEYRDVVDRRVYTVTGERADEDTIDELIETGNSEQIFQKAIQEQGRGQVMDTLAEIQERHDAVRDLEKKLLDLQQIFLDMAVLVDAQGEMLDNIESQVSSAVDHVQSGNTALQRAKSLQKNSRKWMCIAIIILLIVVAVIVVGVLKPWKNKSA
B2: GFP-SYP132 (protein, UniProt Q8VZU2 1-304)
chain: B1 chain
B3: GFP-SYP123 (protein, UniProt Q9ZQZ8 1-305)
chain: MNDLISSSFKRYTDLNHQVQLDDIESQNVSLDSGNLDEFFGYVESVKEDMKAVDEIHKRLQDANEESKTVHDSKAVKKLRARMDSSVTEVLKRVKMIKTKLVALEKSNAAQRKVAGCGPGSSADRTRTSVVSGLGKKLKDMMDDFQRLRTKMATEYKETVERRYFTVTGQKADEETVEKLISSGESERFLQKAIQEQGRGQVMDTLSEIQERHDTVKEIERSLLELHQVFLDMAALVEAQGNMLNDIESNVSKASSFVMRGTDQLHGAKVLQRNNRKWACIATILAIVVVIVILFPILFNTLLRP

Columns and labels:
[1] = target: T1, C-terminal fragment of YFP fused with VAMP721 (Arabidopsis thaliana); assay: split reporter
[2] = target: C-terminal fragment of YFP fused with VAMP727 (Arabidopsis thaliana) (UniProt Q9M376); assay: split reporter
[3] = target: T2, TagRFP-VAMP727 (Arabidopsis thaliana); assay: co-IP

Row | Molecule | binding [1] | binding [2] | binding [3]
1 | N-terminal fragment of YFP fused with SYP123 (from UniProt Q9ZQZ8 1-305) | binds | binds | 
2 | B1 | binds |  | 
3 | B2 |  |  | no binding
4 | B3 |  |  | binds
